Laboratory results as given in the supplement of paper PMC12823440, “Inhibitors supercharge kinase turnover through native proteolytic circuits” (Nature, 2025).
Structures can show the parent of a compound that is named as a salt. Some of the results follow. Hit calls seldom repeat between salt and free forms of one compound.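 Kinases were expressed as nanoluciferase fusions in K562 cells and luminescence was read every 4 h between 2 and 18 h as percent of control, DMSO set to 100% and a positive control to 0%. A time point counts as decreased when the signal drops significantly (2 sigma). The hit call is the authors' own, does not follow from the count of time points alone, and its rule is not shown.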

Each molecule was assayed against SRC (UniProt P12931) (assay: kinase-Nluc reporter destabilization hit call (1 = scored as downregulated) (binary); higher = compound decreases kinase abundance). Settings: 2.5 µM; K562; 2-18 h.

kinase-Nluc reporter destabilization hit call, inactive:
Cc1cccc(-c2[nH]c(CNc3ccccc3F)nc2-c2ccc3ncnn3c2)n1 [Vactosertib] 0
c1cc(-c2cnn3cc(-c4ccc(OCCN5CCCCC5)cc4)cnc23)ccn1 [Dorsomorphin (dihydrochloride)] 0
Oc1cccc(-c2nc(N3CCOCC3)c3oc4ncccc4c3n2)c1 [PI-103 (Hydrochloride)] 0
C=CC(=O)Nc1cc(Nc2nccc(-c3cn(C)c4ccccc34)n2)c(OC)cc1N(C)CCN(C)C [Osimertinib mesylate] 0
CNC(=O)c1cc(Oc2ccc(NC(=O)Nc3ccc(Cl)c(C(F)(F)F)c3)c(F)c2)ccn1 [Regorafenib (monohydrate)] 0
Cc1cccc(-c2[nH]c(CNc3ccccc3F)nc2-c2ccc3ncnn3c2)n1 [Vactosertib (Hydrochloride)] 0
COc1ccc(S(=O)(=O)Nc2ccccc2CN(C)C/C=C/c2ccc(Cl)cc2)cc1 [KN-92 (hydrochloride)] 0
CN(C)C(=O)c1cc2cnc(Nc3ccc(N4CCNCC4)cn3)nc2n1C1CCCC1 [Ribociclib hydrochloride] 0

Same assay, conditions: 10 µM; K562; 2-18 h

kinase-Nluc reporter destabilization hit call, inactive:
CNC(=O)c1ccc(Nc2ncc(C(F)(F)F)c(NCc3nccnc3N(C)S(C)(=O)=O)n2)cc1 [Defactinib (hydrochloride)] 0
C#Cc1cccc(Nc2ncnc3cc4c(cc23)OCCOCCOCCO4)c1 [Icotinib (Hydrochloride)] 0
CNC(=O)c1ccc(Nc2ncc(C(F)(F)F)c(NCc3nccnc3N(C)S(C)(=O)=O)n2)cc1 [Defactinib] 0
N#CCNC(=O)c1ccc(-c2ccnc(Nc3ccc(N4CCOCC4)cc3)n2)cc1 [Momelotinib sulfate] 0
N#CCC1(n2cc(-c3ncnc4[nH]ccc34)cn2)CN(C2CCN(C(=O)c3ccnc(C(F)(F)F)c3F)CC2)C1 [Itacitinib] 0
CC(=O)Nc1cccc(-n2c(=O)n(C3CC3)c(=O)c3c(Nc4ccc(I)cc4F)n(C)c(=O)c(C)c32)c1 [Trametinib] 0
C[C@H](CCC(=O)NCCS(=O)(=O)O)[C@H]1CC[C@H]2[C@@H]3[C@@H](O)C[C@@H]4C[C@H](O)CC[C@]4(C)[C@H]3CC[C@]12C [Tauroursodeoxycholate (sodium)] 0
Cc1cccc(/C=N/Nc2cc(N3CCOCC3)nc(OCCc3ccccn3)n2)c1 [Apilimod (mesylate)] 0
N#CCNC(=O)c1ccc(-c2ccnc(Nc3ccc(N4CCOCC4)cc3)n2)cc1 [Momelotinib] 0
C[S+]([O-])c1ccc(-c2nc(-c3ccc(F)cc3)c(-c3ccncc3)[nH]2)cc1 (centres undefined) 0
COc1cc2c(cc1OC)-c1c(C)c3ccc(OC)c(OC)c3c[n+]1CC2 [Dehydrocorydaline (chloride)] 0
CCCC(=O)Nc1ncnc2c1ncn2[C@@H]1O[C@@H]2COP(=O)(O)O[C@H]2[C@H]1OC(=O)CCC [Bucladesine (sodium)] 0
COc1ccnc(C[S+]([O-])c2nc3cc(-n4cccc4)ccc3[nH]2)c1C (centres undefined) [Ilaprazole] 0
COC(=O)[C@H](CC(C)C)NC(=O)c1ccc(NC[C@@H](N)CS)cc1-c1cccc2ccccc12 0
COc1ncc(F)cc1CNc1ccc(Cc2c[nH]c3ncc(C)cc23)c(F)n1 0
C#Cc1cccc(Nc2ncnc3cc(OCCOC)c(OCCO)cc23)c1 [Desmethyl Erlotinib] 0
Cn1ncc(Cl)c1-c1cc(C(=O)N[C@H](CN)Cc2cccc(F)c2)sc1Cl [Afuresertib] 0
O=C(c1ccc(F)c(F)c1Nc1ccc(I)cc1F)N1CC(O)([C@@H]2CCCCN2)C1 [Cobimetinib (hemifumarate)] 0
COc1cc(/C=C/C(=O)O)ccc1O [Ferulic acid (sodium)] 0
CNc1ncc2cc(-c3ccc(-c4cccc(C)n4)cc3Cl)c(=O)n(C[C@H]3OC[C@H](N)CO3)c2n1 0
COC(=O)[C@H](CC(C)C)NC(=O)c1ccc(NC[C@@H](N)CS)cc1-c1cccc2ccccc12 [GGTI298 (Trifluoroacetate)] 0
Nc1cncc(-c2cn3ccnc3c(Nc3ccc(N4CCN(C5COC5)CC4)cc3)n2)n1 [Lanraplenib (succinate)] 0
CN(C)C(=O)c1cc2cnc(Nc3ccc(N4CCNCC4)cn3)nc2n1C1CCCC1 [Ribociclib] 0
CC(C)NC[C@@H](C(=O)N1CCN(c2ncnc3c2[C@H](C)C[C@H]3O)CC1)c1ccc(Cl)cc1 [Ipatasertib] 0
COc1cc(/C=C/C(=O)O)ccc1O [Ferulic acid] 0
CN(C)C/C=C/C(=O)Nc1cc2c(Nc3ccc(F)c(Cl)c3)ncnc2cc1O[C@H]1CCOC1 [Afatinib] 0

Reprinted at random: 3 entries already listed.
kinase-Nluc reporter destabilization hit call, inactive:
Cc1cccc(/C=N/Nc2cc(N3CCOCC3)nc(OCCc3ccccn3)n2)c1 [Apilimod (mesylate)] 0
COc1cc(/C=C/C(=O)O)ccc1O [Ferulic acid (sodium)] 0
CN(C)C(=O)c1cc2cnc(Nc3ccc(N4CCNCC4)cn3)nc2n1C1CCCC1 [Ribociclib] 0
